{"sequences": {"note": "Chains of the proteins cited; added tags and fusions are not shown. Lines headed by an entry give the natural chain unless they say otherwise; changes in a name come on top.", "UniProt Q13901": "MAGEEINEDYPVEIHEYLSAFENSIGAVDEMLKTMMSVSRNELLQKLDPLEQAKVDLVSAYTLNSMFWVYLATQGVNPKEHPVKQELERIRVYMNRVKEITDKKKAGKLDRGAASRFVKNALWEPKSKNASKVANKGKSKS", "UniProt Q13542": "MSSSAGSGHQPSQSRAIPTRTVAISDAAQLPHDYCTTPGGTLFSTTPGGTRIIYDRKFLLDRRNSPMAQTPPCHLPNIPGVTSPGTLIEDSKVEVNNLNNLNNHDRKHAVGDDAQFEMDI", "UniProt Q13615": "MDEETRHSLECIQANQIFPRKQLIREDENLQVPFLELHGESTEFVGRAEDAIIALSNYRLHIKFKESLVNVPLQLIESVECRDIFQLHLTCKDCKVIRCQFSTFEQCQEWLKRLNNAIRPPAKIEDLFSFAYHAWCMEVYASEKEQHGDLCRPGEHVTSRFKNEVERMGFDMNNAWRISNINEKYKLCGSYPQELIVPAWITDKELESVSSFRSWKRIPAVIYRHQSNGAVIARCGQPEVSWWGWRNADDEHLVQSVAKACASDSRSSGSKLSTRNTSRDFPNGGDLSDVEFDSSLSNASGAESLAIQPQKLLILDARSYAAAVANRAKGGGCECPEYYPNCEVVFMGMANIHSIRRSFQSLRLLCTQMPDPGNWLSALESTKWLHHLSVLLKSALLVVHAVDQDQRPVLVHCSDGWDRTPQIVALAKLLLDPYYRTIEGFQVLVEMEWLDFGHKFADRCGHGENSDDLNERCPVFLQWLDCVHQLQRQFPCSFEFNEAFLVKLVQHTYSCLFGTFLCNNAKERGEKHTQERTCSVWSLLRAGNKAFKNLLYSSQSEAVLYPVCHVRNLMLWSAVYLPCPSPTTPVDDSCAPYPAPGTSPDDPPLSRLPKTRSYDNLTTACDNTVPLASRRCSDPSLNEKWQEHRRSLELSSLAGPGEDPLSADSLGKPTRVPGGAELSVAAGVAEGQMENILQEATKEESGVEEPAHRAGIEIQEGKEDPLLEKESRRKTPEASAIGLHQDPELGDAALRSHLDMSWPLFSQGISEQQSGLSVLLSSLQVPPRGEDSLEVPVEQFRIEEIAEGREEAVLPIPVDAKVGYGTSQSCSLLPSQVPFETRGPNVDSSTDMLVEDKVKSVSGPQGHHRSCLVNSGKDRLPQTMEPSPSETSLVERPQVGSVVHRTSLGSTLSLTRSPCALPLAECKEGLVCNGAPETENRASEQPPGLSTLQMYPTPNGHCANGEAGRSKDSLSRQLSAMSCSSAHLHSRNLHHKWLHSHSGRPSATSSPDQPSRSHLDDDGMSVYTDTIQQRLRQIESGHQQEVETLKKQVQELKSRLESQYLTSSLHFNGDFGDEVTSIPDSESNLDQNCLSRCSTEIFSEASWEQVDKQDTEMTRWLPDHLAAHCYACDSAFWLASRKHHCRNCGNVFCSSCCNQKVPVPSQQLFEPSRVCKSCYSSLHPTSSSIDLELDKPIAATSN", "UniProt Q14966": "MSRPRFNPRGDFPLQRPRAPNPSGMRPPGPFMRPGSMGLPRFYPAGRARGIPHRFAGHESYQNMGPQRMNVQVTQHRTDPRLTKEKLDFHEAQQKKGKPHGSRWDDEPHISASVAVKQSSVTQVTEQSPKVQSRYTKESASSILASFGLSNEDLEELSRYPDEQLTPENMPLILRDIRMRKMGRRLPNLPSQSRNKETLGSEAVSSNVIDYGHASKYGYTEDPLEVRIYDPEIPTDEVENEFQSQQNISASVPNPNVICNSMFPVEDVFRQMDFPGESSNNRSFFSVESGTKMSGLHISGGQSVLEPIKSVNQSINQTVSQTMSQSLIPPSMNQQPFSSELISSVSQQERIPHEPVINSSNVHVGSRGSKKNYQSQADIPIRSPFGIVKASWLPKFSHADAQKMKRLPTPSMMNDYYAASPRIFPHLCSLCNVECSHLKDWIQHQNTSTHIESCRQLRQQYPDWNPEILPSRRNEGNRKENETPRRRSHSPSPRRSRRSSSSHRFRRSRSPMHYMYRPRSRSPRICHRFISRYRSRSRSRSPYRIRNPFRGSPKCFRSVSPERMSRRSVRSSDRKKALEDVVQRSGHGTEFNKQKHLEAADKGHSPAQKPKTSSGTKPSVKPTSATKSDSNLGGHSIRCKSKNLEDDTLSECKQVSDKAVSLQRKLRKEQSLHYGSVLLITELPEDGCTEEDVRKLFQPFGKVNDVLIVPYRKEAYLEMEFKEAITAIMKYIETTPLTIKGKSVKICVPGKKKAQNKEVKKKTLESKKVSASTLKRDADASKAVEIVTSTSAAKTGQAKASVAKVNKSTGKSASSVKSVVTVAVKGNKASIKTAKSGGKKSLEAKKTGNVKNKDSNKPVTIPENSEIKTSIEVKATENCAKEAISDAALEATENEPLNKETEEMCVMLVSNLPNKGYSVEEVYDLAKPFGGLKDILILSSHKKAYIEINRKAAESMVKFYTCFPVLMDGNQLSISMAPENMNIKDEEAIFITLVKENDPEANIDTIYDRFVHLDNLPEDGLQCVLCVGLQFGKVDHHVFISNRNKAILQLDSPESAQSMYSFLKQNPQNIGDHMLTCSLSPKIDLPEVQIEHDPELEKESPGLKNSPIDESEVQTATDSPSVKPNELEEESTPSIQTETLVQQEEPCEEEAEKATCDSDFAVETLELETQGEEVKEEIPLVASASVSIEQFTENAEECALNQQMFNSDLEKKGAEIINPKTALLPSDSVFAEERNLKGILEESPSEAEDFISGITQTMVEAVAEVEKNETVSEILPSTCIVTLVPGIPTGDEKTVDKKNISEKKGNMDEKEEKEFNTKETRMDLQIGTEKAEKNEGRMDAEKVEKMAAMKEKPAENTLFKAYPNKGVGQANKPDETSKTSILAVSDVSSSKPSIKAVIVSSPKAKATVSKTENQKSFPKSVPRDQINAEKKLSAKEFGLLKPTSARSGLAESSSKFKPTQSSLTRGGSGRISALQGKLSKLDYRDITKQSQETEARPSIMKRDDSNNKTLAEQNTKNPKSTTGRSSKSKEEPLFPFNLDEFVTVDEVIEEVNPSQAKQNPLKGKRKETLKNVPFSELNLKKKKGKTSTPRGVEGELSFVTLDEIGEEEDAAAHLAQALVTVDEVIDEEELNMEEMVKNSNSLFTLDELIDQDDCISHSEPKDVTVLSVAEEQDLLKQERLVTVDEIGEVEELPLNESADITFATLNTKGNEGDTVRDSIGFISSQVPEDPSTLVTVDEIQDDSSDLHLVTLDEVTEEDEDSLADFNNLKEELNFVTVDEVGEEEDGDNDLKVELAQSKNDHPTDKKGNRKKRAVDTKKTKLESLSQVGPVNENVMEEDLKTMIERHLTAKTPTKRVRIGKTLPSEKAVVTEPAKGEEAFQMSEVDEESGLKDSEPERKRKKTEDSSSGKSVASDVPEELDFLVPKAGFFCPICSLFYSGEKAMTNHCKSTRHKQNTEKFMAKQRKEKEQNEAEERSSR", "UniProt Q13724": "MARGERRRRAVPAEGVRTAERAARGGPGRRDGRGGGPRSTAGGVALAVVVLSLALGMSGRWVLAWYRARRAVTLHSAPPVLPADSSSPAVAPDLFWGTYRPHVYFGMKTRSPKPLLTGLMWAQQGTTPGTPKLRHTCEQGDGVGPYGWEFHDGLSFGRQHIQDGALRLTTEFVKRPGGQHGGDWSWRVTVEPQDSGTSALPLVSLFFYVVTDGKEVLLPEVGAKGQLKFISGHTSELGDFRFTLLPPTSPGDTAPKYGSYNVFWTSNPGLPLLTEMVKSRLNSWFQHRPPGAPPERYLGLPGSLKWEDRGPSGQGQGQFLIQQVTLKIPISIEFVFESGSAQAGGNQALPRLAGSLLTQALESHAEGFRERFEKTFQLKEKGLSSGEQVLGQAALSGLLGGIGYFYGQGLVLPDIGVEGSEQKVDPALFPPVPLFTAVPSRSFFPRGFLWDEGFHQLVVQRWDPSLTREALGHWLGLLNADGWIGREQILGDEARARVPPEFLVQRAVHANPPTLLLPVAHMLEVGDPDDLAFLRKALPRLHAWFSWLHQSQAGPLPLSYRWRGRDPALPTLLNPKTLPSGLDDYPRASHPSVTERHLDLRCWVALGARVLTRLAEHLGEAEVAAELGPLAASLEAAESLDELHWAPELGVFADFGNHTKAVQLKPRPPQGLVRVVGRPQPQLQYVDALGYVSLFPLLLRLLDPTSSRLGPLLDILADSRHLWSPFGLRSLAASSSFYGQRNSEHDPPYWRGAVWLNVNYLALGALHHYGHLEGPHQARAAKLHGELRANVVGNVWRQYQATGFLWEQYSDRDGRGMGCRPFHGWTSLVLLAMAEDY", "UniProt Q15042": "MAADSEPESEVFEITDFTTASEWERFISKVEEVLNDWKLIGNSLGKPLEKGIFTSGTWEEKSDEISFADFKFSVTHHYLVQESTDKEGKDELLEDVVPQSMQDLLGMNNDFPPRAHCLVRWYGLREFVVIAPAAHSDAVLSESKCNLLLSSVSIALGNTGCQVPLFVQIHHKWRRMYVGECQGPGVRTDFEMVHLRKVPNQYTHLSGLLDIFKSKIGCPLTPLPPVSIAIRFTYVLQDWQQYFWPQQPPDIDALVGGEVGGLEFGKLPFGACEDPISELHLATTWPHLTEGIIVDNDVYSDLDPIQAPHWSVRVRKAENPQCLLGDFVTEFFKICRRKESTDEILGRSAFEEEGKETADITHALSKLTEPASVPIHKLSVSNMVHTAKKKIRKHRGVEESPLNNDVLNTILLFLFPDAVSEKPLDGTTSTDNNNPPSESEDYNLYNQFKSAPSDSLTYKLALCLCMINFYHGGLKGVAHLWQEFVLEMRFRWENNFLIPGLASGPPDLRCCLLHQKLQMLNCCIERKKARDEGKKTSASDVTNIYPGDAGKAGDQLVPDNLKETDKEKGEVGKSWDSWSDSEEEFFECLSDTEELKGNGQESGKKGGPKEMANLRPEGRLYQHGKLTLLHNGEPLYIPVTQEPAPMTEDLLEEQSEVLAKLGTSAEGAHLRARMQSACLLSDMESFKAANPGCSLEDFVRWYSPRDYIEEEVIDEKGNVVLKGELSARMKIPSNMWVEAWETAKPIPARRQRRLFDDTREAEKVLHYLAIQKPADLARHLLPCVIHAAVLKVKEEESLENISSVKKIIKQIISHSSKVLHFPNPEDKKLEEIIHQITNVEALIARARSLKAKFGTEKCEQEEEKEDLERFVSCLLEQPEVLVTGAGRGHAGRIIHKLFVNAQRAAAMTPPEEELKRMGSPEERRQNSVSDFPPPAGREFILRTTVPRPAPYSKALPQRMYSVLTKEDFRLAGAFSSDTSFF", "UniProt Q14181": "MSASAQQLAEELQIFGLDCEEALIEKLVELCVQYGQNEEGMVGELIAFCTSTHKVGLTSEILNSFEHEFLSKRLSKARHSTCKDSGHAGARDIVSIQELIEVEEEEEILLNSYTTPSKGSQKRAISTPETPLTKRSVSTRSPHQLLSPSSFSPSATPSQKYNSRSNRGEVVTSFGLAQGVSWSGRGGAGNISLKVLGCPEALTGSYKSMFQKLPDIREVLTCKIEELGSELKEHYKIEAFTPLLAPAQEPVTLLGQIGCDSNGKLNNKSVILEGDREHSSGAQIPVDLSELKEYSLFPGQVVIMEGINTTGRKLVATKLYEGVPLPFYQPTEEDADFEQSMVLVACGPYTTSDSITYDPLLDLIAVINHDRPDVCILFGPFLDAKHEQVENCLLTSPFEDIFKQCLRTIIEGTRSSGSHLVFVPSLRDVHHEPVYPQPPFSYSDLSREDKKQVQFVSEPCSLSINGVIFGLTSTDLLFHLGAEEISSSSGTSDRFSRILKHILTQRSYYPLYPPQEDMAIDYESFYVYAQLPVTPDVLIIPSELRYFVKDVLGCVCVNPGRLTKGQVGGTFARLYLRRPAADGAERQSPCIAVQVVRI", "UniProt Q13162": "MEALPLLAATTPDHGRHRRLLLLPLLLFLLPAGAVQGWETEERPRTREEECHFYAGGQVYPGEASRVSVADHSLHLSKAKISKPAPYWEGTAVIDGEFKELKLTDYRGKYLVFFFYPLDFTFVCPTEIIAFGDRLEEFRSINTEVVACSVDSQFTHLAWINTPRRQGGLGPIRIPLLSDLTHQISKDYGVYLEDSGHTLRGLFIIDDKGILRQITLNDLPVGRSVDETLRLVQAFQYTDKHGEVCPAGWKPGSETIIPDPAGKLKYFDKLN", "UniProt Q13561, whole entry": "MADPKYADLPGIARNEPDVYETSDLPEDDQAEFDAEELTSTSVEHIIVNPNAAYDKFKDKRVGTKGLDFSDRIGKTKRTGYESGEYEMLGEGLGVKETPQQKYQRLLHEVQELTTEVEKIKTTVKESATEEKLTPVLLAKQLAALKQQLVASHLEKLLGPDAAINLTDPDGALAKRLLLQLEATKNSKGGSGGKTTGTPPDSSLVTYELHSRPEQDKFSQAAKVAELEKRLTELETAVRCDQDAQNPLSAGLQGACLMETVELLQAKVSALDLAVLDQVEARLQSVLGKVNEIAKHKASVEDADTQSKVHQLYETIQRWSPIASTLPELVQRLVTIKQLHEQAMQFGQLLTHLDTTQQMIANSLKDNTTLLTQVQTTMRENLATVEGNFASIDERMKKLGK"}, "source": "the supplement of paper PMC12819154", "about": "“High-throughput peptide-centric local stability assay extends protein–ligand identification to membrane proteins, tissues and bacteria” (Nature Structural & Molecular Biology, 2025)", "compound": "CN[C@@H]1C[C@H]2O[C@@](C)([C@@H]1OC)n1c3ccccc3c3c4c(c5c6ccccc6n2c5c31)C(=O)NC4 [staurosporine]", "assay": "log2 fold change of tryptic peptide abundance, ligand vs vehicle (limited proteolysis) (log2 ratio); higher = more trypsin-susceptible (destabilized)", "conditions": "ligand concentration: 20 uM; sample: K562 cleared lysate; digestion: 4 min, 22 C (HT-PELSA RT4min, Orbitrap Astral)", "note": "This is one part of the list. Most values lie at the level of the controls, where differences are scatter.", "data": [{"target": "PSMD2 (peptide sequence: FLRPHYGK, peptide start residue: 98) (UniProt Q13200)", "values": [{"measurement": "log2 fold change", "value": 0.326}]}, {"target": "RASA3 (peptide sequence: EKQEAAVPLVR, peptide start residue: 330) (UniProt Q14644)", "values": [{"measurement": "log2 fold change", "value": 0.898}]}, {"target": "GANAB (peptide sequence: HHGPQTLYLPVTLSSIPVFQR, peptide start residue: 785) (UniProt Q14697)", "values": [{"measurement": "log2 fold change", "value": 0.33}]}, {"target": "CASP8 (peptide sequence: QEPIKDALMLFQR, peptide start residue: 35) (UniProt Q14790)", "values": [{"measurement": "log2 fold change", "value": 0.358}]}, {"target": "MAD2L1 (peptide sequence: WQFDIECDKTAK, peptide start residue: 100) (UniProt Q13257)", "values": [{"measurement": "log2 fold change", "value": 0.142}]}, {"target": "C1D (peptide sequence: NELLQKLDPLEQAK, peptide start residue: 41) (UniProt Q13901)", "values": [{"measurement": "log2 fold change", "value": 0.476}]}, {"target": "MEF2D (peptide sequence: LDTWTLK, peptide start residue: 515) (UniProt Q14814)", "values": [{"measurement": "log2 fold change", "value": -0.199}]}, {"target": "EIF4EBP2 (peptide sequence: KHAVGDDAQFEMDI, peptide start residue: 107) (UniProt Q13542)", "values": [{"measurement": "log2 fold change", "value": -0.381}]}, {"target": "HES1 (peptide sequence: INESLSQLK, peptide start residue: 50) (UniProt Q14469)", "values": [{"measurement": "log2 fold change", "value": 0.379}]}, {"target": "MTMR3 (peptide sequence: AGIEIQEGKEDPLLEK, peptide start residue: 710) (UniProt Q13615)", "values": [{"measurement": "log2 fold change", "value": -0.307}]}, {"target": "UniProt Q14141 (peptide sequence: IHVCLYFIAPTGHSLK, peptide start residue: 148)", "values": [{"measurement": "log2 fold change", "value": -0.478}]}, {"target": "MYO9B (peptide sequence: SPLEHSSPEK, peptide start residue: 1109) (UniProt Q13459)", "values": [{"measurement": "log2 fold change", "value": 0.473}]}, {"target": "UniProt Q14586 (peptide sequence: HGSCDLENLHLR, peptide start residue: 103)", "values": [{"measurement": "log2 fold change", "value": 0.328}]}, {"target": "ZNF638 (peptide sequence: EFGLLKPTSAR, peptide start residue: 1436) (UniProt Q14966)", "values": [{"measurement": "log2 fold change", "value": -0.213}]}, {"target": "UniProt Q13724 (peptide sequence: GFLWDEGFHQLVVQR, peptide start residue: 447)", "values": [{"measurement": "log2 fold change", "value": 0.199}]}, {"target": "UniProt Q15042 (peptide sequence: LEEIIHQITNVEALIAR, peptide start residue: 829)", "values": [{"measurement": "log2 fold change", "value": 0.835}]}, {"target": "MTA1 (peptide sequence: SNMSPHGLPAR, peptide start residue: 446) (UniProt Q13330)", "values": [{"measurement": "log2 fold change", "value": 0.667}]}, {"target": "EIF3I (peptide sequence: MKPILLQGHER, peptide start residue: 1) (UniProt Q13347)", "values": [{"measurement": "log2 fold change", "value": 0.201}]}, {"target": "ILK (peptide sequence: ICMNEDPAK, peptide start residue: 427) (UniProt Q13418)", "values": [{"measurement": "log2 fold change", "value": -0.322}]}, {"target": "LPIN1 (peptide sequence: QVGVSLNR, peptide start residue: 810) (UniProt Q14693)", "values": [{"measurement": "log2 fold change", "value": 0.299}]}, {"target": "POLA2 (peptide sequence: HSTCKDSGHAGAR, peptide start residue: 79) (UniProt Q14181)", "values": [{"measurement": "log2 fold change", "value": 0.409}]}, {"target": "PRDX4 (peptide sequence: TREEECHFYAGGQVYPGEASR, peptide start residue: 46) (UniProt Q13162)", "values": [{"measurement": "log2 fold change", "value": -0.174}]}, {"target": "CLINT1 (peptide sequence: NKDKYVGVSSDSVGGFR, peptide start residue: 155) (UniProt Q14677)", "values": [{"measurement": "log2 fold change", "value": -0.107}]}, {"target": "AP3B2 (peptide sequence: KLLQMQPAQHGEIIK, peptide start residue: 467) (UniProt Q13367)", "values": [{"measurement": "log2 fold change", "value": 0.399}]}, {"target": "UniProt Q14197 (peptide sequence: FHLATAEWIAEPVRQK, peptide start residue: 103)", "values": [{"measurement": "log2 fold change", "value": -0.273}]}, {"target": "SCRIB (peptide sequence: DATHQEAVSALLRPCLELSLLVR, peptide start residue: 1068) (UniProt Q14160)", "values": [{"measurement": "log2 fold change", "value": 0.396}]}, {"target": "DCTN2 (peptide sequence: ENLATVEGNFASIDER, peptide start residue: 380) (UniProt Q13561)", "values": [{"measurement": "log2 fold change", "value": -0.423}]}, {"target": "MRPL49 (peptide sequence: IKGYFDQELK, peptide start residue: 149) (UniProt Q13405)", "values": [{"measurement": "log2 fold change", "value": 0.489}]}]}
